Laboratory results from publication PMC7819943, “Rice protein-binding microarrays: a tool to detect cis-acting elements near promoter regions in rice”.
This is one part of the list.

Chains of the proteins cited; added tags and fusions are not shown.
UniProt Q0JBA9, entry or part of it: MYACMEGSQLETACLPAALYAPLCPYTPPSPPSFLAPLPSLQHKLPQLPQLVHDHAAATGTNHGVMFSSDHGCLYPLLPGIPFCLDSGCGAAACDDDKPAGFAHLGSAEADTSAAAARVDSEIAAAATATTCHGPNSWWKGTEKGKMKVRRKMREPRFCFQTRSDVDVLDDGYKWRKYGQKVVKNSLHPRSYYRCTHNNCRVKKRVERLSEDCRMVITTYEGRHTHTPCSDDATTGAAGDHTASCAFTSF

Target: OsWRKY34 (Oryza sativa, UniProt Q0JBA9 1-250)
Test: protein-binding microarray (RPBM); PBS, 2% BSA, 51.3 ng/ul salmon testes DNA, 50 uM zinc acetate, 200 nM TF, 25 C, 1 h; high values mean tight binding
Conditions: protein: recombinant; tags: N-terminal polyhistidine and DsRed monomer fusion (pET32a); label: CyDye5-dUTP incorporated in the synthesized complementary strand; 3' TTTTT single-stranded linker to array surface; dsDNA, one strand shown
How it was run: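 An Axon 4000B scanner gave the binding signal as per-feature fluorescence intensity in arbitrary units. This followed washing of a custom Agilent array that had been incubated for 1 h at 25 °C with 200 nM protein in PBS, 2% BSA, salmon testes DNA and 50 µM zinc acetate. The proteins were transcription factors fused at the N-terminus to polyhistidine and DsRed, expressed in E. coli BL21-CodonPlus and purified on Ni–NTA.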

Question: “ATAGTGTTACCTGTTCCAACATATTACCCAAATACACAACCGGAGTCACCTAGTGCAG” was tested. Which binding signal did it give?
Answer: The binding signal was 8560 fluorescence intensity (a.u.).

Question: How did the binding signal turn out when “AATTATTCACACGCTAATGGACCGCTCCGTTTTCCGTGTTCGGAGTCACCTAGTGCAG” was run?
Answer: Its binding signal is 12600 fluorescence intensity (a.u.).

Question: “GGGGTGAGGGTACGTTCGTTGTGAGTGTCTACGTTGTACTCGGAGTCACCTAGTGCAG” was tested. Which binding signal did it give?
Answer: Its binding signal is 10700 fluorescence intensity (a.u.).

Question: Which binding signal does the source give for “CTAAGGGTGCGTTTGTTTCAGCAGTTGTGTGGGGATTTTCCGGAGTCACCTAGTGCAG” here?
Answer: Its binding signal is 12700 fluorescence intensity (a.u.).

Question: With “TGCCTGTCTGCCATTTCTCTCCATCTCGGTCTGTAAAATGCGGAGTCACCTAGTGCAG” as the sequence, how does the binding signal read?
Answer: Its binding signal is 8610 fluorescence intensity (a.u.).

Question: How did the binding signal turn out when “ACCTAGAATCTTTCTTGATCAAACTTCCCTTTGGTTCCCTCGGAGTCACCTAGTGCAG” was run?
Answer: The binding signal was 8810 fluorescence intensity (a.u.).

Question: Which binding signal does the source give for “AACACCAATCGAACACCTTGTGGGCGTCCTGTAGCTATCCCGGAGTCACCTAGTGCAG” here?
Answer: Its binding signal is 8360 fluorescence intensity (a.u.).

Question: Which binding signal does the source give for “TAACTGATTTTTCTTTATCCCTTTGCATGCCTAATCTGATCGGAGTCACCTAGTGCAG” here?
Answer: The binding signal was 12200 fluorescence intensity (a.u.).

Question: “CACCGTTGATTTTTTAGCACATGTTTGACCGTTCGTCTTACGGAGTCACCTAGTGCAG” was tested. Which binding signal did it give?
Answer: Its binding signal is 12900 fluorescence intensity (a.u.).

Question: “CTAACCCACGCCGCGCCGGCCGCCGGACGCCACTGCTCCGCGGAGTCACCTAGTGCAG” was tested. Which binding signal did it give?
Answer: Its binding signal is 8430 fluorescence intensity (a.u.).

Question: How did the binding signal turn out when “GTCCACTACCTCTAGTTAGTTTCAGTTTCCTTGCCGTAGTCGGAGTCACCTAGTGCAG” was run?
Answer: Its binding signal is 11400 fluorescence intensity (a.u.).

Question: For “CACTACATTCTACATTTCTTTTGCATTCTCTGGTGGGTTTCGGAGTCACCTAGTGCAG”, which binding signal is on record?
Answer: Its binding signal is 9300 fluorescence intensity (a.u.).

Question: With “TCGCGGCCATCACGTTAGCAGCCCACTCGCTCGCTCGCTCCGGAGTCACCTAGTGCAG” as the sequence, how does the binding signal read?
Answer: Its binding signal is 8480 fluorescence intensity (a.u.).

Question: With “TGCACTTCCTATGTCTCATCCCAGTTTTTCACTTCAACAACGGAGTCACCTAGTGCAG” as the sequence, how does the binding signal read?
Answer: Its binding signal is 11900 fluorescence intensity (a.u.).

Question: Which binding signal does the source give for “CCCCACTGGCCTGTCTCCAATCTTGAGCAGTTCTCTCTTGCGGAGTCACCTAGTGCAG” here?
Answer: The binding signal was 8400 fluorescence intensity (a.u.).

Question: “CGAACGGTCAAACATGTTTAAAAAAGTCAACGGCGTCAAACGGAGTCACCTAGTGCAG” was tested. Which binding signal did it give?
Answer: Its binding signal is 15300 fluorescence intensity (a.u.).

Question: For “CAAACTCCGATGTTTGACTACTGACCTCTAGAGATAGTACCGGAGTCACCTAGTGCAG”, which binding signal is on record?
Answer: Its binding signal is 9870 fluorescence intensity (a.u.).

Question: Which binding signal does the source give for “CCCGTCAGTGCTTACGCTGTTAGCCTGTTACGGCAGCTGCCGGAGTCACCTAGTGCAG” here?
Answer: Its binding signal is 9340 fluorescence intensity (a.u.).

Question: How did the binding signal turn out when “TCTATTTCTTCAACCCCTTAATAATGTTGTTCTTCGCATCCGGAGTCACCTAGTGCAG” was run?
Answer: Its binding signal is 8830 fluorescence intensity (a.u.).

Question: Which binding signal does the source give for “ATTCCTCTAAAATTTATCAAGTTTTGGTTCGTTCCATTGACGGAGTCACCTAGTGCAG” here?
Answer: The binding signal was 8450 fluorescence intensity (a.u.).

Question: How did the binding signal turn out when “TTGTCTTCCTTTGTTTCGACTGGTCCAGTTTCGTCCTCTCCGGAGTCACCTAGTGCAG” was run?
Answer: Its binding signal is 10300 fluorescence intensity (a.u.).

Question: “TTCTTTTTCTTACCTATGTTTGAATACTTTTGCATGTAATCGGAGTCACCTAGTGCAG” was tested. Which binding signal did it give?
Answer: Its binding signal is 9780 fluorescence intensity (a.u.).

Question: For “GCAGCGACGACATCTGACGGCCTCACCTACCTTTCGGTCTCGGAGTCACCTAGTGCAG”, which binding signal is on record?
Answer: The binding signal was 8460 fluorescence intensity (a.u.).

Question: How did the binding signal turn out when “TTCGTTGTCTCGCCCCGCGGTGGGCAGGTTGCGCGCCACTCGGAGTCACCTAGTGCAG” was run?
Answer: Its binding signal is 8130 fluorescence intensity (a.u.).

Question: For “ACTCGCTGTACTCTTAAGTAATACTTAACTGTCTCTGTAGCGGAGTCACCTAGTGCAG”, which binding signal is on record?
Answer: The binding signal was 9570 fluorescence intensity (a.u.).

Question: Which binding signal does the source give for “GAAATTAGGACTTCAGCTTTTCCATATTCTTATAATCTTACGGAGTCACCTAGTGCAG” here?
Answer: Its binding signal is 8770 fluorescence intensity (a.u.).

Question: With “CGCGCCGCCATGCCCTCTTCTCTTCATTCCTCGCGCGCGCCGGAGTCACCTAGTGCAG” as the sequence, how does the binding signal read?
Answer: Its binding signal is 9980 fluorescence intensity (a.u.).

Question: Which binding signal does the source give for “TTTGTTTTTTTTGCTTATTTAGTTTTTTTTTCAGCTTTTTCGGAGTCACCTAGTGCAG” here?
Answer: Its binding signal is 17300 fluorescence intensity (a.u.).

Question: How did the binding signal turn out when “ACGGGTACTATTCACTGTCTGATTTTATTATTTTTGTTTCCGGAGTCACCTAGTGCAG” was run?
Answer: The binding signal was 12900 fluorescence intensity (a.u.).

Question: With “AGTAGCGTTACCTGTCGTACGAGTTATATTTTTCTTCCTTCGGAGTCACCTAGTGCAG” as the sequence, how does the binding signal read?
Answer: Its binding signal is 10600 fluorescence intensity (a.u.).

Question: With “GCCTCAATTTTCACCTACTCCACCTTGATCCACCTCGATCCGGAGTCACCTAGTGCAG” as the sequence, how does the binding signal read?
Answer: The binding signal was 13200 fluorescence intensity (a.u.).

Question: Which binding signal does the source give for “GTTCCCTTTGCAAACCAGCTGGCAACCATCTATCCAATATCGGAGTCACCTAGTGCAG” here?
Answer: Its binding signal is 9180 fluorescence intensity (a.u.).

Question: Which binding signal does the source give for “TGTTGTTGTTGTTGTGGATGGTTGGTAATGGCGGCATGGTCGGAGTCACCTAGTGCAG” here?
Answer: Its binding signal is 9120 fluorescence intensity (a.u.).

Question: For “TATTTCTGAGTTTAACTTTTGTACCTGGGTTTTTCCTAGCCGGAGTCACCTAGTGCAG”, which binding signal is on record?
Answer: Its binding signal is 9310 fluorescence intensity (a.u.).

Question: For “ACATTTCCTCGCCGTTACCCGCATAATTTCCTCGAGCCGCCGGAGTCACCTAGTGCAG”, which binding signal is on record?
Answer: The binding signal was 14300 fluorescence intensity (a.u.).

Question: How did the binding signal turn out when “ATGTCCGTGGTTATATTATTTTCCTGATTCTGAGTATGAACGGAGTCACCTAGTGCAG” was run?
Answer: The binding signal was 10600 fluorescence intensity (a.u.).

Question: How did the binding signal turn out when “GCCTCTCCACCAATCAGCGCCCACTTTTACCCACTATAAACGGAGTCACCTAGTGCAG” was run?
Answer: Its binding signal is 8560 fluorescence intensity (a.u.).

Question: With “TTCTACCCCTTTTCTCCTCCGCTTCCTTTTACTTGGCTTGCGGAGTCACCTAGTGCAG” as the sequence, how does the binding signal read?
Answer: Its binding signal is 8420 fluorescence intensity (a.u.).

Question: How did the binding signal turn out when “GGTGTTTTGGTACGTCATCTGTGTATGAGTCGGTTTTCAACGGAGTCACCTAGTGCAG” was run?
Answer: Its binding signal is 8300 fluorescence intensity (a.u.).

Question: How did the binding signal turn out when “TCTCCCACGATTCGCCTTACATGTTTATTACACGCCATGACGGAGTCACCTAGTGCAG” was run?
Answer: The binding signal was 10700 fluorescence intensity (a.u.).

Question: For “TATCAGGCACAACTTTGACATTTTTTCTCTGTACACATAACGGAGTCACCTAGTGCAG”, which binding signal is on record?
Answer: Its binding signal is 8140 fluorescence intensity (a.u.).

Question: For “TCCATGCATGCTTTGCCTAGCTTTTTTCCAAGTTCTTTTTCGGAGTCACCTAGTGCAG”, which binding signal is on record?
Answer: The binding signal was 9450 fluorescence intensity (a.u.).
